Experimental data as given in paper PMC4735655.
Results are given in words; binding and its absence hold for the method and conditions named. For some assays here: Binding seen in cells or lysates may run through a third protein. Some entries that bind do so weakly or less than the wild type. For some assays here: Where a sequence is shown, tags or fusion partners need not be part of it. One block for each substance: values may come before it.

Tests used:
[1] = target: T1, GST fusion of AURKA 283–333 domain (human) (UniProt O14965); experiment: pull-down; 5 μg GST fusion protein of a truncated form incubated 1 h at 4 °C in RIPA lysate of 293T cells overexpressing HA-tagged AURKA or hnRNP K; glutathione–agarose beads; only the target purified
T1 sequence: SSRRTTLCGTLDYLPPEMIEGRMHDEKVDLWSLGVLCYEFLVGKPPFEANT

[2] = target: T2, Flag-AURKA–enhanced green fluorescent protein (EGFP) (human) (UniProt O14965); experiment: co-IP; 293T co-transfected with WT or NLS deletion mutant hnRNP K and Flag-AURKA–EGFP for 24 h; cytoplasmic protein fraction
T2 sequence: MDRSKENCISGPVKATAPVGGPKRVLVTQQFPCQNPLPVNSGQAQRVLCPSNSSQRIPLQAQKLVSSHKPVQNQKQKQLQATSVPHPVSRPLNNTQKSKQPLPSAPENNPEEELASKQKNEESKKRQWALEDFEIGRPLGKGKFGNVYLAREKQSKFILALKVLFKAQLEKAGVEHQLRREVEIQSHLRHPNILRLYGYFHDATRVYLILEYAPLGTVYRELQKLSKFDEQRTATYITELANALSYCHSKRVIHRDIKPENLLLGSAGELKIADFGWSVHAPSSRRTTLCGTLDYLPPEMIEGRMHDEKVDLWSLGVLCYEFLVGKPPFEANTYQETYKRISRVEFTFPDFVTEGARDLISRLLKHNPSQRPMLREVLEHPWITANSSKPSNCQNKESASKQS

[3] = target: T2, Flag-AURKA–enhanced green fluorescent protein (EGFP) (human); experiment: co-IP; 293T co-transfected with WT or NLS deletion mutant hnRNP K and Flag-AURKA–EGFP for 24 h; whole lysates
[4] = target: T2, Flag-AURKA–enhanced green fluorescent protein (EGFP) (human); experiment: co-IP; 293T co-transfected with WT or NLS deletion mutant hnRNP K and Flag-AURKA–EGFP for 24 h; nuclear protein fraction
[5] = target: T3, Aurora kinase A (AURKA), endogenous (human (endogenous in MDA-MB-231 and breast cancer tissue)) (UniProt O14965); experiment: co-IP; endogenous proteins; RIPA lysate, 1 μg antibody and 2–5 mg lysate
T3 sequence: T2 sequence

[6] = target: T3, Aurora kinase A (AURKA), endogenous (human (endogenous in MDA-MB-231 and breast cancer tissue)); experiment: co-IP; endogenous proteins; lysate of breast cancer tissue in which AURKA is predominantly expressed in the cytoplasm (Fig. 3k lane 4)
[7] = target: T3, Aurora kinase A (AURKA), endogenous (human (endogenous in MDA-MB-231 and breast cancer tissue)); experiment: co-IP; endogenous proteins; lysates of breast cancer tissue in which AURKA is predominantly expressed in the nucleus (Fig. 3k lanes 2 and 6)
[8] = target: T3, Aurora kinase A (AURKA), endogenous (human (endogenous in MDA-MB-231 and breast cancer tissue)); experiment: co-IP; endogenous proteins; nuclear and cytoplasmic protein fractions of MDA-MB-231 cells
[9] = target: T3, Aurora kinase A (AURKA), endogenous (human (endogenous in MDA-MB-231 and breast cancer tissue)); experiment: re-ChIP; formaldehyde-fixed chromatin of MDA-MB-231 cells, sequential ChIP with antibodies against AURKA and hnRNP K, real-time PCR of the MYC promoter
[10] = target: T4, AURKA, ectopically expressed (co-IP of Supplementary Fig. 3h,i,k) (human) (UniProt O14965); experiment: co-IP; ectopically expressed proteins; RIPA lysate, 1 μg antibody and 200–500 μg lysate
T4 sequence: T2 sequence

AURKA-EYFP (human) = target: T5, AURKA-EYFP (human) (UniProt O14965); experiment: FRET or BRET; sensitized emission FRET in 293T cells co-transfected with hnRNP K-ECFP and AURKA-EYFP, 48 h, room temperature; ROIs in cytoplasm and nucleus
T5 sequence: T2 sequence

- binding [1]: binds
Substance: HA-tagged hnRNP K (from UniProt P61978 1-463)

- binding [2]: binds weakly
- binding [3]: binds
- binding [4]: binds
Substance: NLS deletion mutant hnRNP K (from UniProt P61978 1-463)

- binding [2]: binds weakly
- binding [3]: binds
- binding [4]: binds
Substance: WT hnRNP K (co-transfected with Flag-AURKA–EGFP) (from UniProt P61978 1-463)

- binding [5]: binds
- binding [6]: binds weakly
- binding [7]: binds
- binding [8]: binds
- binding [9]: binds
Substance: heterogeneous nuclear ribonucleoprotein K (hnRNP K), endogenous (from UniProt P61978 1-463)

- binding [10]: binds
Substance: hnRNP K, ectopically expressed (co-IP of Supplementary Fig. 3h,i,k) (from UniProt P61978 1-463)

Substance: hnRNP K-ECFP (from UniProt P61978 1-463)
- binding (AURKA-EYFP (human)): binds
